Reference: the supplement of paper PMC4604168 (melanoma cell lines)
The other results are listed elsewhere or left out. Repeats are few or missing, and single values can be far off.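 Cells were imaged in 1,536-well plates, and nuclei stained with an antibody against cleaved PARP were counted against all DNA-stained nuclei to give the apoptosis fraction. Screening doses were chosen to leave most cells alive, and resting and induced cleaved-PARP levels differ strongly between cell lines.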

Each molecule was assayed on WM1745 (assay: cleaved PARP positive nuclei fraction relative to DMSO control; melanoma cells; higher = more apoptosis). Details: library dose: low library concentration; 72 h.

Row | Structure (SMILES) | cleaved PARP positive nuclei fraction
1 | CO[C@H]1C[C@@H]2CC[C@@H](C)[C@@](O)(O2)C(=O)C(=O)N2CCCC[C@H]2C(=O)O[C@H]([C@H](C)C[C@@H]2CC[C@@H](OCCO)[C@H](OC)C2)CC(=O)[C@H](C)/C=C(\C)[C@@H](O)[C@@H](OC)C(=O)[C@H](C)C[C@H](C)/C=C/C=C/C=C/1C [everolimus] + O=C1NC(=O)/C(=C/c2ccc(-c3ccc(F)cc3O)o2)S1 [AS252424] (first compound 0.02 µM, partner dose 1 µM) | 101%
2 | O=C(O)[C@@H]1[O][Sb](=[O])([O][Sb]2(=[O])[O][C@H]([C@H](O)CO)[C@H](O)[C@H](C(=O)O)[O]2)[O][C@H]([C@H](O)CO)[C@@H]1O (stereo partly drawn) [stibogluconate] + Clc1ccc(Nc2nnc(Cc3ccncc3)c3ccccc23)cc1 [vatalanib] (first compound 2 µM, partner dose 2 µM) | 99.9%
3 | CO[C@H]1C[C@@H]2CC[C@@H](C)[C@@](O)(O2)C(=O)C(=O)N2CCCC[C@H]2C(=O)O[C@H]([C@H](C)C[C@@H]2CC[C@@H](OCCO)[C@H](OC)C2)CC(=O)[C@H](C)/C=C(\C)[C@@H](O)[C@@H](OC)C(=O)[C@H](C)C[C@H](C)/C=C/C=C/C=C/1C [everolimus] + O=C(CCCCCCC(=O)Nc1ccccc1)NO [vorinostat] (first compound 0.02 µM, partner dose 0.08 µM) | 84%
4 | CO[C@H]1C[C@@H]2CC[C@@H](C)[C@@](O)(O2)C(=O)C(=O)N2CCCC[C@H]2C(=O)O[C@H]([C@H](C)C[C@@H]2CC[C@@H](OCCO)[C@H](OC)C2)CC(=O)[C@H](C)/C=C(\C)[C@@H](O)[C@@H](OC)C(=O)[C@H](C)C[C@H](C)/C=C/C=C/C=C/1C [everolimus] + Clc1ccc(Nc2nnc(Cc3ccncc3)c3ccccc23)cc1 [vatalanib] (first compound 0.02 µM, partner dose 2 µM) | 127%
5 | CO[C@H]1C[C@@H]2CC[C@@H](C)[C@@](O)(O2)C(=O)C(=O)N2CCCC[C@H]2C(=O)O[C@H]([C@H](C)C[C@@H]2CC[C@@H](OCCO)[C@H](OC)C2)CC(=O)[C@H](C)/C=C(\C)[C@@H](O)[C@@H](OC)C(=O)[C@H](C)C[C@H](C)/C=C/C=C/C=C/1C [everolimus] + O=C(O)c1ccc2c(c1)nc(Nc1cccc(Cl)c1)c1ccncc12 [CX4945] (first compound 0.02 µM, partner dose 0.4 µM) | 95.1%
6 | CO[C@H]1C[C@@H]2CC[C@@H](C)[C@@](O)(O2)C(=O)C(=O)N2CCCC[C@H]2C(=O)O[C@H]([C@H](C)C[C@@H]2CC[C@@H](OCCO)[C@H](OC)C2)CC(=O)[C@H](C)/C=C(\C)[C@@H](O)[C@@H](OC)C(=O)[C@H](C)C[C@H](C)/C=C/C=C/C=C/1C [everolimus] + CNC(=O)c1cc(Oc2ccc(NC(=O)Nc3ccc(Cl)c(C(F)(F)F)c3)cc2)ccn1 [sorafenib] (first compound 0.02 µM, partner dose 0.4 µM) | 101%

What follows are molecules tested on WM3526 in the same assay as above. Details: library dose: low library concentration; 72 h.

Row | Structure (SMILES) | cleaved PARP positive nuclei fraction
7 | CO[C@H]1C[C@@H]2CC[C@@H](C)[C@@](O)(O2)C(=O)C(=O)N2CCCC[C@H]2C(=O)O[C@H]([C@H](C)C[C@@H]2CC[C@@H](OCCO)[C@H](OC)C2)CC(=O)[C@H](C)/C=C(\C)[C@@H](O)[C@@H](OC)C(=O)[C@H](C)C[C@H](C)/C=C/C=C/C=C/1C [everolimus] + c1cc(-c2cnn3cc(-c4ccc(OCCN5CCCCC5)cc4)cnc23)ccn1 [Dorsomorphin] (first compound 0.02 µM, partner dose 0.4 µM) | 109%
8 | Cn1c(=O)n(-c2ccc(C(C)(C)C#N)cc2)c2c3cc(-c4cnc5ccccc5c4)ccc3ncc21 + CO[C@H]1C[C@@H]2CC[C@@H](C)[C@@](O)(O2)C(=O)C(=O)N2CCCC[C@H]2C(=O)O[C@H]([C@H](C)C[C@@H]2CC[C@@H](OCCO)[C@H](OC)C2)CC(=O)[C@H](C)/C=C(\C)[C@@H](O)[C@@H](OC)C(=O)[C@H](C)C[C@H](C)/C=C/C=C/C=C/1C [everolimus] (first compound 0.004 µM, partner dose 0.02 µM) | 34.7%
9 | C[C@@H](Oc1cc(-c2cnn(C3CCNCC3)c2)cnc1N)c1c(Cl)ccc(F)c1Cl [Crizotinib] + CNC(=O)c1cc(Oc2ccc(NC(=O)Nc3ccc(Cl)c(C(F)(F)F)c3)cc2)ccn1 [sorafenib] (first compound 0.2 µM, partner dose 0.4 µM) | 69.7%
10 | CO[C@H]1C[C@@H]2CC[C@@H](C)[C@@](O)(O2)C(=O)C(=O)N2CCCC[C@H]2C(=O)O[C@H]([C@H](C)C[C@@H]2CC[C@@H](OCCO)[C@H](OC)C2)CC(=O)[C@H](C)/C=C(\C)[C@@H](O)[C@@H](OC)C(=O)[C@H](C)C[C@H](C)/C=C/C=C/C=C/1C [everolimus] + O=C(Nc1cccc(Cl)c1)Nc1ncc(CCNc2ncnc3ccsc23)s1 [SNS314] (first compound 0.02 µM, partner dose 0.0008 µM) | 203%
11 | CO[C@H]1C[C@@H]2CC[C@@H](C)[C@@](O)(O2)C(=O)C(=O)N2CCCC[C@H]2C(=O)O[C@H]([C@H](C)C[C@@H]2CC[C@@H](OCCO)[C@H](OC)C2)CC(=O)[C@H](C)/C=C(\C)[C@@H](O)[C@@H](OC)C(=O)[C@H](C)C[C@H](C)/C=C/C=C/C=C/1C [everolimus] + Oc1nc(-c2ccc(C(F)(F)F)cc2)nc2c1CSCC2 [XAV939] (first compound 0.02 µM, partner dose 2 µM) | 110%
12 | CO[C@H]1C[C@@H]2CC[C@@H](C)[C@@](O)(O2)C(=O)C(=O)N2CCCC[C@H]2C(=O)O[C@H]([C@H](C)C[C@@H]2CC[C@@H](OCCO)[C@H](OC)C2)CC(=O)[C@H](C)/C=C(\C)[C@@H](O)[C@@H](OC)C(=O)[C@H](C)C[C@H](C)/C=C/C=C/C=C/1C [everolimus] + Cc1nc(Nc2ncc(C(=O)Nc3c(C)cccc3Cl)s2)cc(N2CCN(CCO)CC2)n1 [dasatanib] (first compound 0.02 µM, partner dose 0.004 µM) | 274%
13 | CO[C@H]1C[C@@H]2CC[C@@H](C)[C@@](O)(O2)C(=O)C(=O)N2CCCC[C@H]2C(=O)O[C@H]([C@H](C)C[C@@H]2CC[C@@H](OCCO)[C@H](OC)C2)CC(=O)[C@H](C)/C=C(\C)[C@@H](O)[C@@H](OC)C(=O)[C@H](C)C[C@H](C)/C=C/C=C/C=C/1C [everolimus] + CC1(C)NC(=O)N(c2ccc([N+](=O)[O-])c(C(F)(F)F)c2)C1=O [nilutamide] (first compound 0.02 µM, partner dose 1 µM) | 194%
14 | CO[C@H]1C[C@@H]2CC[C@@H](C)[C@@](O)(O2)C(=O)C(=O)N2CCCC[C@H]2C(=O)O[C@H]([C@H](C)C[C@@H]2CC[C@@H](OCCO)[C@H](OC)C2)CC(=O)[C@H](C)/C=C(\C)[C@@H](O)[C@@H](OC)C(=O)[C@H](C)C[C@H](C)/C=C/C=C/C=C/1C [everolimus] + Nc1cccc2c1CN(C1CCC(=O)NC1=O)C2=O [lenalidomide] (first compound 0.02 µM, partner dose 1 µM) | 373%
15 | CO[C@H]1C[C@@H]2CC[C@@H](C)[C@@](O)(O2)C(=O)C(=O)N2CCCC[C@H]2C(=O)O[C@H]([C@H](C)C[C@@H]2CC[C@@H](OCCO)[C@H](OC)C2)CC(=O)[C@H](C)/C=C(\C)[C@@H](O)[C@@H](OC)C(=O)[C@H](C)C[C@H](C)/C=C/C=C/C=C/1C [everolimus] + Nc1nc(F)nc2c1ncn2[C@@H]1O[C@H](CO)[C@@H](O)[C@@H]1O [fludarabine] (first compound 0.02 µM, partner dose 0.2 µM) | 320%
16 | CO[C@H]1C[C@@H]2CC[C@@H](C)[C@@](O)(O2)C(=O)C(=O)N2CCCC[C@H]2C(=O)O[C@H]([C@H](C)C[C@@H]2CC[C@@H](OCCO)[C@H](OC)C2)CC(=O)[C@H](C)/C=C(\C)[C@@H](O)[C@@H](OC)C(=O)[C@H](C)C[C@H](C)/C=C/C=C/C=C/1C [everolimus] + C=CCn1c(=O)c2cnc(Nc3ccc(N4CCN(C)CC4)cc3)nc2n1-c1cccc(C(C)(C)O)n1 [MK1775] (first compound 0.02 µM, partner dose 0.02 µM) | 92.9%
17 | CO[C@H]1C[C@@H]2CC[C@@H](C)[C@@](O)(O2)C(=O)C(=O)N2CCCC[C@H]2C(=O)O[C@H]([C@H](C)C[C@@H]2CC[C@@H](OCCO)[C@H](OC)C2)CC(=O)[C@H](C)/C=C(\C)[C@@H](O)[C@@H](OC)C(=O)[C@H](C)C[C@H](C)/C=C/C=C/C=C/1C [everolimus] + Nc1ncn([C@H]2C[C@H](O)[C@@H](CO)O2)c(=O)n1 [decitabine] (first compound 0.02 µM, partner dose 0.1 µM) | 57.5%
18 | CO[C@H]1C[C@@H]2CC[C@@H](C)[C@@](O)(O2)C(=O)C(=O)N2CCCC[C@H]2C(=O)O[C@H]([C@H](C)C[C@@H]2CC[C@@H](OCCO)[C@H](OC)C2)CC(=O)[C@H](C)/C=C(\C)[C@@H](O)[C@@H](OC)C(=O)[C@H](C)C[C@H](C)/C=C/C=C/C=C/1C [everolimus] + CC(C)(C)c1cnc(CSc2cnc(NC(=O)C3CCNCC3)s2)o1 [SNS-032] (first compound 0.02 µM, partner dose 0.01 µM) | 178%

As a short view, some entries already given:
Row | Structure (SMILES) | cleaved PARP positive nuclei fraction
14 | CO[C@H]1C[C@@H]2CC[C@@H](C)[C@@](O)(O2)C(=O)C(=O)N2CCCC[C@H]2C(=O)O[C@H]([C@H](C)C[C@@H]2CC[C@@H](OCCO)[C@H](OC)C2)CC(=O)[C@H](C)/C=C(\C)[C@@H](O)[C@@H](OC)C(=O)[C@H](C)C[C@H](C)/C=C/C=C/C=C/1C [everolimus] + Nc1cccc2c1CN(C1CCC(=O)NC1=O)C2=O [lenalidomide] (first compound 0.02 µM, partner dose 1 µM) | 373%
15 | CO[C@H]1C[C@@H]2CC[C@@H](C)[C@@](O)(O2)C(=O)C(=O)N2CCCC[C@H]2C(=O)O[C@H]([C@H](C)C[C@@H]2CC[C@@H](OCCO)[C@H](OC)C2)CC(=O)[C@H](C)/C=C(\C)[C@@H](O)[C@@H](OC)C(=O)[C@H](C)C[C@H](C)/C=C/C=C/C=C/1C [everolimus] + Nc1nc(F)nc2c1ncn2[C@@H]1O[C@H](CO)[C@@H](O)[C@@H]1O [fludarabine] (first compound 0.02 µM, partner dose 0.2 µM) | 320%
16 | CO[C@H]1C[C@@H]2CC[C@@H](C)[C@@](O)(O2)C(=O)C(=O)N2CCCC[C@H]2C(=O)O[C@H]([C@H](C)C[C@@H]2CC[C@@H](OCCO)[C@H](OC)C2)CC(=O)[C@H](C)/C=C(\C)[C@@H](O)[C@@H](OC)C(=O)[C@H](C)C[C@H](C)/C=C/C=C/C=C/1C [everolimus] + C=CCn1c(=O)c2cnc(Nc3ccc(N4CCN(C)CC4)cc3)nc2n1-c1cccc(C(C)(C)O)n1 [MK1775] (first compound 0.02 µM, partner dose 0.02 µM) | 92.9%
